These are yes or no findings as the source states them, for the method shown. Binding seen in cells or lysates may run through a third protein. Some entries that bind do so weakly or less than the wild type.
T1: ErbB3 binding protein 1 (EBP1) p42 isoform (human (endogenous in HepG2, Huh6 and Hep3B)) (UniProt Q9UQ80)
T1 sequence: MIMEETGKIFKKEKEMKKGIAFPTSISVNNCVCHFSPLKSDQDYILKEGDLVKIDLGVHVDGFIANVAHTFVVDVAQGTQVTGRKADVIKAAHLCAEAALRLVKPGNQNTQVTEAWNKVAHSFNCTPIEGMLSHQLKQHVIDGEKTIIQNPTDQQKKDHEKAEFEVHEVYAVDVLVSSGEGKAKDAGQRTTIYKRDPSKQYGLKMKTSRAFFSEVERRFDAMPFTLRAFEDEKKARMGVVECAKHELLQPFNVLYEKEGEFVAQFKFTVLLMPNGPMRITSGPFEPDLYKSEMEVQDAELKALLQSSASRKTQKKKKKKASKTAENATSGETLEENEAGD

The chains behind the UniProt entries cited, without tags or fusion partners.
UniProt Q9NQB0: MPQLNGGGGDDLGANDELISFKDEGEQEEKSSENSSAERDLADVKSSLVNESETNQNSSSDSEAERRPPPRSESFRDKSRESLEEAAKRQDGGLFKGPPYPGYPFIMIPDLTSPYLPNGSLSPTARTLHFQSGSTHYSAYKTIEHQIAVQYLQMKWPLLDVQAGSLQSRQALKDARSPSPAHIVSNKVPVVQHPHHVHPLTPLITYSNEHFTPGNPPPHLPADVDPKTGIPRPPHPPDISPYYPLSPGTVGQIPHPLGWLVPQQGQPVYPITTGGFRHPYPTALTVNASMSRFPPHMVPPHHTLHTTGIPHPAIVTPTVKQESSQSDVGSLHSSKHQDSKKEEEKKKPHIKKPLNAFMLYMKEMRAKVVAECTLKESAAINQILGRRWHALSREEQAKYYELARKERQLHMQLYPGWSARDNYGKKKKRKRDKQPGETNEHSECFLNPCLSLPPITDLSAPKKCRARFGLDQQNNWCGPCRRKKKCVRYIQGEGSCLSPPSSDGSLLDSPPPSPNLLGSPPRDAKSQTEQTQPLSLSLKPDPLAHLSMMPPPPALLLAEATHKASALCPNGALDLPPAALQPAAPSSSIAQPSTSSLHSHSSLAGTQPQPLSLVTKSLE
UniProt P35222: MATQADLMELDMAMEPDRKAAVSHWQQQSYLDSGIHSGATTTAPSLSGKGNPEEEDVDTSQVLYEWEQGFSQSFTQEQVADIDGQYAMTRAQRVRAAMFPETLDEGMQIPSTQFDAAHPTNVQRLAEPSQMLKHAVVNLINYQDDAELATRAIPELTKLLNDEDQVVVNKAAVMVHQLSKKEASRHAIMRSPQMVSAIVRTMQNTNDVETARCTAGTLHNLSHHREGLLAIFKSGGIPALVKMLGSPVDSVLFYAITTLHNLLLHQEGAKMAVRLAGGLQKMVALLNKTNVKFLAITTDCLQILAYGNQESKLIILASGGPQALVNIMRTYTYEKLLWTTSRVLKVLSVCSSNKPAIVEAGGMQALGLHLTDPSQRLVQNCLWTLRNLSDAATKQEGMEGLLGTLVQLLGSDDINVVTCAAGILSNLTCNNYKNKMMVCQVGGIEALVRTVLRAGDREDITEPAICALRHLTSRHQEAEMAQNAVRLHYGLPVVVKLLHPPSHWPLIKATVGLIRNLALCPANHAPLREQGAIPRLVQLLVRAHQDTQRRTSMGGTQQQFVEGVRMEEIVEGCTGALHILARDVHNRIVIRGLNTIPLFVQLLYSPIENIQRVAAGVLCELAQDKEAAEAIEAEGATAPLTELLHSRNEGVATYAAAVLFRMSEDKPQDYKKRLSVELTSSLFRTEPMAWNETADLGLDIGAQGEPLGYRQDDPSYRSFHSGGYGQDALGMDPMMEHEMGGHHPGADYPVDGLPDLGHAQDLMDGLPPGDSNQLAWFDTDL


Columns and labels:
Experiment in all cases: co-IP; 150 µg nuclear protein of HCC cells (HepG2, Hep3B, Huh6) treated with DMSO or the IC50 of YC-1 for 6 h, with or without N-si-p48 DsiRNA; IP buffer 10 mM Tris-HCl pH 7.6, 145 mM NaCl, 1 mM EDTA, 1 mM EGTA, 0.5% Triton X-100; anti-β-catenin, anti-TCF4 or anti-EBP1 antibody overnight at 4 °C, protein A/G Sepharose; western blotting
[1] = molecular target: T1, ErbB3 binding protein 1 (EBP1) p42 isoform (human (endogenous in HepG2, Huh6 and Hep3B))
[2] = molecular target: T cell-specific factor 4 (TCF4) (human (endogenous in HepG2, Hep3B and Huh6)) (UniProt Q9NQB0)
[3] = molecular target: β-catenin (human (endogenous in HepG2 and Hep3B)) (UniProt P35222)

| binding [1] | binding [2] | binding [3] | Molecule |
| --- | --- | --- | --- |
| binds | – | – | T cell-specific factor 4 (TCF4) (from UniProt Q9NQB0 1-619) |
| – | binds | binds | ErbB3 binding protein 1 (EBP1) p48 isoform (protein, UniProt Q9UQ80 1-394) MSGEDEQQEQTIAEDLVVTKYKMGGDIANRVLRSLVEASSSGVSVLSLCEKGDAMIMEETGKIFKKEKEMKKGIAFPTSISVNNCVCHFSPLKSDQDYILKEGDLVKIDLGVHVDGFIANVAHTFVVDVAQGTQVTGRKADVIKAAHLCAEAALRLVKPGNQNTQVTEAWNKVAHSFNCTPIEGMLSHQLKQHVIDGEKTIIQNPTDQQKKDHEKAEFEVHEVYAVDVLVSSGEGKAKDAGQRTTIYKRDPSKQYGLKMKTSRAFFSEVERRFDAMPFTLRAFEDEKKARMGVVECAKHELLQPFNVLYEKEGEFVAQFKFTVLLMPNGPMRITSGPFEPDLYKSEMEVQDAELKALLQSSASRKTQKKKKKKASKTAENATSGETLEENEAGD |
| – | binds | binds | ErbB3 binding protein 1 (EBP1) p42 isoform (protein, UniProt Q9UQ80-2 1-340) MIMEETGKIFKKEKEMKKGIAFPTSISVNNCVCHFSPLKSDQDYILKEGDLVKIDLGVHVDGFIANVAHTFVVDVAQGTQVTGRKADVIKAAHLCAEAALRLVKPGNQNTQVTEAWNKVAHSFNCTPIEGMLSHQLKQHVIDGEKTIIQNPTDQQKKDHEKAEFEVHEVYAVDVLVSSGEGKAKDAGQRTTIYKRDPSKQYGLKMKTSRAFFSEVERRFDAMPFTLRAFEDEKKARMGVVECAKHELLQPFNVLYEKEGEFVAQFKFTVLLMPNGPMRITSGPFEPDLYKSEMEVQDAELKALLQSSASRKTQKKKKKKASKTAENATSGETLEENEAGD |
